The inconclusive results got no clear call from the source; some entries with a clear call stand among them for comparison. Potencies of inconclusive entries are doubtful fits and often do not repeat. The source made the active and inactive calls. Calls follow the shape of the dose curve; as a rule, active = well fitted inhibition curve with a large enough effect; inconclusive = small, poorly fitted or top-dose-only effect; inactive = no such curve, though single readings can be large or run the other way.
target: Isocitrate dehydrogenase [NADP] cytoplasmic (Homo sapiens) (UniProt O75874); experiment: qHTS for Inhibitors of mutant isocitrate dehydrogenase 1 (IDH1): Cherrypicks in WT IDH1; settings: WT IDH1 enzyme, NADPH diaphorase/resazurin fluorescence; series mostly up to 115 µM; also: nearly all actives have a fitted effect of over 55% in size
Text: Unbiased genomic sequencing for 22 glioma genomes found recurrent mutation of isocitrate dehydrogenase 1 (IDH1) on chromosome 2q33-a gene encoding the cytosolic isoform of IIDH1associated with the tricarboxylic acid cycle (TCA) that catalyzes the oxidative decarboxylation of isocitrate, yielding alpha-ketoglutarate and CO2 via NADP+ to NADPH conversion. Subsequent studies confirmed the recurrent IDH mutations in up to 70% of secondary gliomas and in 10% of AML cases. […] This in effect defines IDH1 as an oncogene, and provides an extraordinary opportunity to discover chemical probes against mutant IDH1 that may translate into much needed new therapies for glioma and AML patients. QHTS-compatible fluorescent, enzymatic assay was developed to identify inhibitors of the IDH1 mutant (AID 602179). To identify selectivity of the identified inhibitors, a secondary enzymatic assay against the WT IDH1 was also developed. Inhibition of the WT IDH1 leads to a decrease in the amount of NADPH relative to a DMSO control and a concomitant decrease in the fluorescence of the diaphorase/resazurin enzyme product resorufin at 590 nm. Compounds were screened as a concentration-titration series that ranged from 115 uM to 0.20 uM. NIH Molecular Libraries Probe Production Network [MLPCN] NIH Chemical Genomics Center [NCGC] MLSCN Grant: R03 DA032129 PI Name: Dr. Lenny Dang
Enzyme buffer was dispensed into black, solid 1536-well plates at 3 microL/well in 20 mM Tris buffer, pH 7.5, containing final concentrations of 10 mM MgCl2, 20 mM NaCl, 0.05% BSA, 2 mM b-ME and 0.65 nM WT IDH1. Then, 23 nL of compounds or DMSO were delivered to each well using a pin tool. The substrate and detection buffer (1 uL; 20 mM Tris buffer, pH 7.5, containing final concentrations of 10 mM MgCl2, 20 mM NaCl, 0.05% BSA, 0.06 mM NADP+, 0.53 uM diaphorase, 0.012 mM resazurin and 0.08 mM isocitrate) was added to start the enzymatic reaction. The fluorescence intensity was monitored in kinetic mode on a ViewLux plate reader at 598 nm for 10 minutes (Ex 525, EM 598, bodipy mirror, 0.5 sec exposure). The % Activity was determined from the corrected fluorescence values. As no specific WT IDH1 inhibitors have been identified in the literature, 1x (0.65 nM) and 0x WT IDH1 enzyme controls (untreated) were included to normalize % Activity of identified inhibitors; 0x enzyme values corresponded to 100% Activity (full inhibition), while 1x WT IDH1 enzyme values were used to normalize 0% Activity (no inhibition). Concentration-response curves were fitted to the signals arising from the resulting fluorescence. The concentration-response curves were then classified based on curve quality (r2), response magnitude and degree of measured activity, and compounds were subsequently categorized based on their curve class. […] Keywords: Isocitrate dehydrogenase, IDH1, IDH1 R132H, 2-HG, 2-hydroxyglutarate, AML, glioma, MLSMR, MLPCN, NIH Roadmap, qHTS, NCGC
Potency is read from the fitted curve at half-maximal effect.

The chains behind the UniProt entries cited, without tags or fusion partners.
UniProt O75874, whole entry, looked up: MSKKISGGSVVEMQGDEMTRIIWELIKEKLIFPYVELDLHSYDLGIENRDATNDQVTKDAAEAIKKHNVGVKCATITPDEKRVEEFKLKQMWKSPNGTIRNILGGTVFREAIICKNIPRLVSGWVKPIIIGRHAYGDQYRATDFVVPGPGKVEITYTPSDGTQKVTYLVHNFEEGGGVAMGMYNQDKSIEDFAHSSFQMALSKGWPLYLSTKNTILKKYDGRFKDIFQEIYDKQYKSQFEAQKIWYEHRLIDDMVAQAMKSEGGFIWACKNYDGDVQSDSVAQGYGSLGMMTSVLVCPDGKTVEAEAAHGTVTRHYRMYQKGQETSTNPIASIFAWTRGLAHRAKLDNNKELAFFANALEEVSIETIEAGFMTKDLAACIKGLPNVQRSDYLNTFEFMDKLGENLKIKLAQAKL

Potency, inactive:
CC(C)(C)n1nnnc1C(c1cccs1)N(Cc1cccnc1)Cc1ccccc1Cl (stereo not given), CCOC(=O)c1c(NC(=O)COC(=O)c2ccccc2NC)sc(C(=O)N(C)C)c1C, O=C(NC1CCCCC1)C(c1cccs1)N(C(=O)c1ccco1)c1ccc2c(c1)OCCO2 (stereo not given), O=c1cc(N2CCCCC2)c(-c2ccccc2)nn1Cc1c(Cl)cccc1Cl, COc1cccc(N(C(=O)c2csnn2)C(C(=O)NC2CCCC2)c2ccccc2)c1 (stereo not given), O=c1c2ccccc2nc(/C=C/c2cccnc2)n1CCc1ccccc1

Potency, inconclusive:
c1cc(-c2sc(-c3ccncc3)c(-c3ccncc3)c2-c2ccncc2)ccn1 44.7 µM [inhibitor, full curve], CC(=O)NC1C(=O)N(CCN2CCOCC2)c2ccc(Cl)cc21 (stereo not given) 89.1 µM [inhibitor, single point], Cn1ncc2c(Nc3cccc(Cl)c3)nc(Nc3cccc(Cl)c3)nc21 35.5 µM [inhibitor, full curve], Cc1cccc(NC(=O)COc2ccc(/C=C\c3[nH]c(=O)[nH]c(=O)c3[N+](=O)[O-])cc2)c1 79.4 µM [inhibitor, partial curve], Cc1c(C)c2c(OCC(=O)O)cc3c(c2oc1=O)CCC(C)(C)O3 79.4 µM [inhibitor, partial curve, poor fit], COc1ccc(N=C2S/C(=C\c3ccc(OC(C)C(=O)O)c(OC)c3)C(=O)N2CCc2c[nH]c3ccccc23)cc1 (stereo not given) 89.1 µM [inhibitor, single point], NNC(=O)CN1C(c2ccc(Cl)cc2)=Nc2ccc(Br)cc2C1c1ccccc1 (stereo not given) 44.7 µM [inhibitor, partial curve, poor fit], CCCN1C(=O)c2[nH]nc(-c3cc(Cl)c(C)cc3O)c2C1c1ccc(O)c(OC)c1 (stereo not given) 39.8 µM [inhibitor, partial curve, poor fit], O=C(C=P(c1ccccc1)(c1ccccc1)c1ccccc1)c1ccccc1-c1ccccc1C(=O)C=P(c1ccccc1)(c1ccccc1)c1ccccc1 44.7 µM [inhibitor, partial curve], Cc1cc(-n2c(=S)sc3c(=O)n(-c4ccc(F)cc4)c(SCC(=O)O)nc32)ccc1Cl 89.1 µM [inhibitor, single point], CCOc1cc(/C=C2/C(=O)ON=C2C)ccc1OCc1ccccc1F 79.4 µM [inhibitor, partial curve], O=C1c2ccccc2-c2n[nH]c(=O)c3ccc(N4CCCCC4)c1c23 35.5 µM [inhibitor, partial curve], C=C1CC2(CC(c3ccccc3)OC(c3ccccc3)C2)OC1=O (stereo not given) 44.7 µM [inhibitor, partial curve], c1ccc(C2=Nn3c(nnc3-c3cc(-c4ccccc4)n[nH]3)SC2)cc1 31.6 µM [inhibitor, full curve], CCCCOc1ccc(CN2C(=O)C(=O)c3cc(Br)cc(C)c32)cc1OC 79.4 µM [inhibitor, single point], Cc1ccc(Sc2ccc(NC(=O)CCl)cc2)cc1C 79.4 µM [inhibitor, partial curve, poor fit], Cc1cc(=O)[nH]c(SCC(=O)Nc2ncc(S(=O)(=O)c3ccc([N+](=O)[O-])cc3)s2)n1 50.1 µM [inhibitor, partial curve], Cc1nc([N+](=O)[O-])c(Br)n1CC(=O)c1ccc2ccccc2c1 79.4 µM [inhibitor, partial curve, poor fit], COc1cc2cnc(-c3ccccc3)c(-c3ccc(C#N)cc3)c2cc1OC 28.2 µM [inhibitor, full curve], CCN(CC)C(=O)c1ccc2c(c1)N(Cc1c(F)cccc1Cl)C(=O)c1ccccc1S2 39.8 µM [inhibitor, partial curve], COc1ccc(-c2nn(-c3ccccc3)cc2/C=C2/SC(=S)N(CCC(=O)O)C2=O)c(C)c1 89.1 µM [inhibitor, single point], O=C(/C=C/c1ccc(Cl)cc1)c1ccc([N+](=O)[O-])o1 39.8 µM [inhibitor, full curve], O=C1c2[nH]nc(-c3ccccc3O)c2C(c2cccc(OCc3ccccc3)c2)N1CCCO (stereo not given) 79.4 µM [inhibitor, partial curve, poor fit], O=C(NC(Nc1nc2ccc([N+](=O)[O-])cc2s1)(C(F)(F)F)C(F)(F)F)c1ccccc1 79.4 µM [inhibitor, single point], N#Cc1ccccc1Cn1cc(/C=C/[N+](=O)[O-])c2ccccc21 70.8 µM [inhibitor, partial curve], COc1cccc(C2c3c(-c4ccccc4)n[nH]c3C(=O)N2c2ccc(C(=O)O)cc2)c1 (stereo not given) 100 µM [inhibitor, single point]

Potency, active:
CCOC(=O)C1=C(O)/C(=C/c2ccc(OCC(=O)O)c(OCC)c2)SC1=Nc1ccc(OC)cc1 50.1 µM, O=C1C(F)=CC(COC(c2ccccc2)(c2ccccc2)c2ccccc2)OC1n1cc(F)c(=O)[nH]c1=O (stereo not given) 50.1 µM, CC(=O)N1CCc2c(sc3c2c(=O)n(-c2ccccc2)c(=O)n3Cc2cccc(C(F)(F)F)c2)C1 7.94 µM, COc1cc2c(c3oc(-c4ccccc4)cc(=O)c13)C=CC(C)(C)O2 28.2 µM, CC(=O)N1CCc2c(sc3c2c(=O)n(-c2cccc(Cl)c2C)c(=O)n3Cc2ccccc2C)C1 39.8 µM, CCOc1ccc(NC(=O)c2c[nH]n3c(=O)cc(C4CCN(C(=O)OC(C)(C)C)CC4)nc23)cc1 50.1 µM, CCOc1cc(/C=C(\C#N)C(=O)Nc2cccc(C(=O)O)c2)cc(Br)c1OC(=O)c1ccc(OC)cc1 70.8 µM, COc1ccc(NC(=O)c2c[nH]n3c(=O)cc(C4CCN(C(=O)OC(C)(C)C)CC4)nc23)cc1Cl 31.6 µM
